Data on 17 molecules can be found in PubChem BioAssay AID493014 (National Center for Advancing Translational Sciences (NCATS), 2011).

This test can be described thus: qHTS Assay to Find Inhibitors of Chronic Active B-Cell Receptor Signaling. As to conditions: ABC-DLBCL IkBa-CBG/CBR reporter, luminescence ratio (green luciferase fused to IkBa over red control in TMD8 lymphoma cells), 4 h. In short, it runs like this:
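Concentration-response series (up to 46 uM) were applied to TMD8 dual-reporter cells for 4 h at 37C with doxycycline. Green/red ratio, after filter-overlap correction, defined %Activity; red signal alone was normalised to basal cells and zero luminescence.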

The mark [1] stands for this setting: measured here: CBR red luminescence, cell number.
The mark [2] stands for this setting: measured here: IkBa-CBG green luminescence.

This is one part of the list. Shown are side measurements of this screen, not its main read-out; they come without a call. Compounds called inactive in the main read-out are mostly missing here. Words in brackets tell the shape of the fitted curve; partial curves, single points and poor fits give uncertain potencies.

Usually AC50 stands for the midpoint of the concentration-response curve, whichever way the signal moves. As for `Cc1cccc(-n2cnc(C(=O)NC3CCCCCC3)c2)n1`, the AC50 under setting [1] is 1.12 µM [falling, full curve].
As to `N#C/C(C(=S)Nc1ccccc1)=C1/NN=C(N2CCOCC2)N1c1ccccc1`, the half-maximal activity concentration (AC50) runs as follows: under setting [1], 35.5 µM [rising, single point]; under setting [2], 25.1 µM [falling, single point].
`CCN1C(=O)CC(n2c(C)nc3ccccc32)C1=O` (stereo not given): under setting [1], the AC50 was 29.1 µM [rising, single point].
For the molecule `Cc1ccc(C(=O)NCC(=O)OCc2csc(-c3ccccc3)n2)cc1`, the concentration at half-maximal activity (AC50) under setting [1] was 29.1 µM [rising, single point].
Same read-out and setting: under `CCc1cc(CC)c(/C=N/NC(N)=O)c(CC)c1/C=N/NC(N)=O` stands 5.62 µM [falling, full curve]; under `Cc1ccccc1NC(=O)N1CCCC(c2nc(-c3ccc(C(C)C)cc3)no2)C1` (stereo not given), 2.24 µM [falling, full curve, poor fit].
Still for that read-out and setting: then `Cc1cccc(-[n+]2c(-c3cccc(Br)c3)[nH]c3nc4ccccc4nc32)c1`, with 2.51 µM [rising, partial curve, poor fit]; and `O=C(CN1C(=O)C(=O)N(CCC2=CCCCC2)C1=O)c1c[nH]c2ccccc12`, with 5.17 µM [falling, partial curve].
Take `O=[N+]([O-])c1cccc(COc2ncnc3cc([N+](=O)[O-])ccc23)c1`: the AC50 under setting [1] was 8.91 µM [falling, partial curve].
Still for that read-out and setting: then `CCCCOC(=O)Nc1nc(C)c(C(=O)OCC)s1`, with 0.1 µM [falling, full curve, poor fit]; and `O=C(Cc1cn2ccsc2n1)OCc1nc2ccccc2s1`, with 2.51 µM [rising, partial curve, poor fit].
With `CCc1ccc(OCC(=O)Nc2cccc3nsnc23)cc1`, the AC50 under setting [1] was 15.8 µM [falling, partial curve, poor fit].
`CN(C)CCCN(C(=O)C1COc2ccccc2O1)c1nc2cc3c(cc2s1)OCO3` (stereo not given): under setting [1], the half-maximal activity concentration (AC50) was 1.78 µM [falling, partial curve].
Still for that read-out and setting: under `Cn1c(=O)[nH]c(=O)c2c1nc(N1CCCCC1)n2CCOc1ccccc1` stands 3.55 µM [rising, single point].
Consider `CC1(NC(=O)CC(c2ccccc2)(c2ccccc2)c2ccccc2)CCN(CCCc2ccccc2)C1=O` (stereo not given), for which the half-maximal activity concentration (AC50) runs as follows: under setting [1], 14.6 µM [falling, partial curve]; under setting [2], 16.4 µM [rising, partial curve, poor fit].
`O=C(O)CCn1c(-c2ccccc2)cc2ccccc21`: under setting [1], the concentration at half-maximal activity (AC50) is 12.6 µM [rising, single point].
As to `Cc1ccc(C(=O)Nc2nnc(-c3ccco3)o2)cc1C`, the half-maximal activity concentration (AC50) is, setting by setting: under setting [1], 23.1 µM [falling, single point]; under setting [2], 32.6 µM [falling, partial curve, poor fit].
